This is one part of the list. Further columns of the screen follow, without active or inactive calls. Compounds called inactive in the main read-out are mostly missing here. Potencies come from curve fits of mixed quality, noted in brackets.
Assay: qHTS Assay for Modulators of Lamin A Splicing
Settings: HeLa LMNA splicing GFP/RFP minigene ratio, 48 h
Procedure, shortened: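 S3 HeLa cells stably expressing lamin A-EGFP splicing minigene plus DsRed2, 600 cells/well, 48 h compound exposure at 37C. Laser-scanning cytometry; analysed as GFP (500-530 nm)/RFP (575-640 nm) total intensity ratio; 0.5% DMSO vehicle.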

[1] = measured here: GFP splicing reporter channel
[2] = measured here: RFP viability control channel

SMILES	AC50 [1]	AC50 [2]
Cc1ccc(S(=O)(=O)N2CCCC(C(=O)N(Cc3cccs3)C3CC3)C2)cc1 (stereo unspecified)	0.158 µM [rising, full curve, poor fit]	20 µM [rising, partial curve]
COc1ccc(C(=O)NCc2ccc3c(c2)CCN3C(=O)c2ccc(C)cc2)cc1	7.08 µM [falling, partial curve, poor fit]	2.51 µM [falling, partial curve, poor fit]
O=C(CCCOc1ccc(Cl)cc1Cl)N/N=C/c1ccccc1O	–	8.91 µM [rising, partial curve, poor fit]
Cc1ccc(NC(=O)CN(C)CC(=O)Nc2cccc(F)c2)cc1[N+](=O)[O-]	5.01 µM [falling, partial curve, poor fit]	–
CC(=O)c1cccc(NC(=O)C2CCN(S(=O)(=O)c3ccc4[nH]c(=O)ccc4c3)CC2)c1	0.0398 µM [falling, full curve]	0.0398 µM [falling, full curve]
O=C(CSc1nc2c([nH]c3ccccc32)c(=O)n1-c1cccc(C(F)(F)F)c1)N1CCc2ccccc21	11.2 µM [falling, partial curve]	17.8 µM [falling, partial curve, poor fit]
CC(NC(=O)CCn1c(=S)[nH]c2ccsc2c1=O)c1ccccc1 (stereo unspecified)	–	35.5 µM [falling, single point]
CC(C)(C)c1ccc(C(=O)NCc2ccccc2)cc1	–	0.447 µM [falling, partial curve]
CC(C)c1ccc(NC(=O)CSc2nc3ccccc3nc2Cc2ccccc2)cc1	1.41 µM [rising, partial curve]	2.51 µM [rising, single point]
O=C(N/N=C/c1c[nH]c2ccccc12)C1CC1(c1ccccc1)c1ccccc1 (stereo unspecified)	22.4 µM [falling, single point]	–
COc1ccc(-c2cc(C(=O)NN)n(-c3ccccc3)n2)cc1	–	0.0316 µM [rising, full curve, poor fit]
O=C(Cc1ccc(Cl)c(Cl)c1)OCC(=O)c1ccc[nH]1	12.6 µM [rising, single point]	–
O=C(N/N=C/c1cc2ccccc2nc1Cl)[C@H]1C[C@@H]1c1ccccc1	3.55 µM [rising, full curve, poor fit]	12.6 µM [rising, partial curve]
NC(=O)c1ccsc1NC(=O)c1nc(-c2ccccc2)n(-c2ccccc2)n1	–	20 µM [rising, single point]
CC(C)c1ccccc1NC(=O)COc1ccc(C(=O)NCCc2ccccc2)cc1	35.5 µM [falling, single point]	35.5 µM [falling, single point]
Cc1ccc2nc(/C(C#N)=C\c3ccc(N4CCOCC4)o3)[nH]c2c1	15.8 µM [falling, partial curve]	11.2 µM [falling, partial curve]
O=C(CSc1nc(O)c(Cc2ccccc2)c(=O)[nH]1)Nc1nc2c(s1)CCCC2	–	0.794 µM [rising, full curve]
COc1ccc(-c2nc3cnc(N4CCNCC4)nc3n(Cc3cccs3)c2=O)cc1	17.8 µM [falling, single point]	15.8 µM [falling, partial curve]
Cc1cc(N=Nc2ccccc2)c(NCC(O)C(O)C(O)CO)cc1C (stereo unspecified)	12.6 µM [falling, single point]	11.2 µM [falling, partial curve]
CCOC(=O)c1ccc(NC(=O)CNC(=O)C2CCCCC2)cc1	35.5 µM [rising, single point]	–
COCCn1c(SCC(=O)Nc2sc(C)c(C)c2C#N)nnc1-c1ccc(OC)cc1	11.2 µM [rising, partial curve]	11.2 µM [rising, single point]
COc1cccc2sc(NNC(=O)c3nc4ccccc4s3)nc12	4.47 µM [rising, single point]	3.55 µM [rising, single point]
CC1CCCCC1NS(=O)(=O)c1ccc(S(=O)(=O)NCc2ccncc2)cc1 (stereo unspecified)	0.178 µM [rising, full curve, poor fit]	1.41 µM [rising, full curve]
CCC[C@@H](NS(=O)(=O)c1ccc(C)cc1)C(=O)Oc1ccc2c3c(c(=O)oc2c1)CCC3	–	14.1 µM [rising, partial curve, poor fit]
COc1ccc2[nH]cc(CCNc3ncnc4ccc(-c5cccnc5)cc34)c2c1	22.4 µM [falling, partial curve]	25.1 µM [falling, partial curve]
COc1ccc2[nH]cc(CCNC(=O)c3cnn(-c4ccc(C)cc4)c3C3CCN(C(=O)OC(C)(C)C)CC3)c2c1	10 µM [falling, partial curve, poor fit]	12.6 µM [falling, partial curve, poor fit]

SMILES	AC50 [1]	AC50 [2]
CCn1c2ccccc2c2cc(NC(=S)N3CCOCC3)ccc21	35.5 µM [falling, single point]	–
Cc1nn(C(=O)Cn2cc([N+](=O)[O-])cn2)c(C)c1Cl	–	0.00355 µM [rising, full curve, poor fit]
COc1cc(CCC(=O)Nc2cccc(S(=O)(=O)N(C)C)c2)cc(OC)c1OC	11.2 µM [rising, partial curve]	14.1 µM [rising, single point]
COc1ccc(Cl)cc1NC(=O)C(C)N(C)Cc1cccc(Cl)c1Cl (stereo unspecified)	–	35.5 µM [rising, single point]
COc1ccc(C(=O)CCNc2ccc3c(c2)OCCO3)cc1	–	0.447 µM [falling, partial curve, poor fit]
COc1cc([N+](=O)[O-])cc(/C=N/NC(=O)C(C)Nc2ccccc2C)c1O (stereo unspecified)	–	22.4 µM [rising, single point]
CC(=O)OC(C(=O)Nc1ccccc1)C(C)S(=O)(=O)c1ccccc1 (stereo unspecified)	–	12.6 µM [rising, partial curve]
CCn1c(=O)cc(SCC(=O)NCCCN2CCN(c3ccc(F)cc3)CC2)c2ccccc21	17.8 µM [rising, partial curve]	35.5 µM [rising, single point]
N#CC1=C(Nc2ccc(Br)cc2)CCC1	–	0.0282 µM [falling, full curve, poor fit]
Cc1cccc(NC(=O)COC(=O)c2ccccc2-c2nc3ccccc3s2)c1C	–	22.4 µM [rising, single point]
CCC(=O)N1CCc2cc(CNC(=O)Cc3ccc(F)cc3)ccc21	14.1 µM [rising, single point]	–
O=C(Nc1cc(N2CCOCC2)ncn1)NC1(C(F)(F)F)Oc2ccc(Cl)cc2O1 (stereo unspecified)	–	17.8 µM [rising, partial curve]
COc1ccc(CCNC(=O)C(C)Sc2ccc(C)cc2)cc1OC (stereo unspecified)	–	17.8 µM [rising, partial curve]
CC(=O)Nc1cccc(/C(C)=N\NC(=O)c2ccc(Cn3nc([N+](=O)[O-])c(Cl)c3C)o2)c1	–	6.31 µM [rising, partial curve]
CCOC(=O)c1cnc(SCC(=O)N2CCN(c3ccccc3)CC2)nc1N	–	3.55 µM [rising, partial curve, poor fit]
Cc1cccc(OCCn2c(NC(=O)c3ccco3)nc3ccccc32)c1	–	17.8 µM [rising, single point]
CCCCC(=O)N1CCN(c2ccc(OC)cc2[N+](=O)[O-])CC1	–	15.8 µM [rising, single point]
O=C1c2ccccc2NC(c2ccc(-c3cccc([N+](=O)[O-])c3)o2)N1O (stereo unspecified)	35.5 µM [rising, single point]	35.5 µM [rising, single point]
Cc1ccc(NC(=O)c2cc(S(=O)(=O)NC3CCCCC3)ccc2F)cc1Cl	0.0447 µM [falling, full curve, poor fit]	0.0224 µM [falling, full curve]
O=C(N/N=C/c1ccc(-c2cccc(C(F)(F)F)c2)o1)c1ccccc1Br	8.91 µM [falling, single point]	20 µM [falling, single point]
Cc1ccc(S(=O)(=O)N2c3ccccc3CC2C)cc1 (stereo unspecified)	3.16 µM [rising, partial curve, poor fit]	2.51 µM [rising, partial curve]
COc1cccc(CN2CCC(N(CCc3ccccc3)Cc3ccccc3)CC2)c1OC	7.94 µM [rising, partial curve]	11.2 µM [rising, partial curve]
CCOC(=O)c1ccc2[nH]c(C)c(CCC(C)=O)c(=O)c2c1	0.355 µM [falling, full curve, poor fit]	0.00562 µM [falling, full curve, poor fit]
CC(=O)O[C@]1(C(C)=O)CC[C@H]2C3C=C(Cl)C4=CC(=O)[C@@H]5C[C@H]5[C@]4(C)C3CC[C@@]21C (stereo partly specified)	0.398 µM [falling, full curve, poor fit]	0.000794 µM [falling, full curve, poor fit]
O=C(c1sc2ccccc2c1Cl)N1CCN(c2ncccn2)CC1	–	35.5 µM [rising, single point]
Cn1c(=O)oc2cc(S(=O)(=O)N3CCCC(C(=O)N4CCc5ccccc5C4)C3)ccc21 (stereo unspecified)	–	12.6 µM [rising, partial curve]

3 structures out of the list, arranged by heavy-atom count, low to high.
SMILES	AC50 [1]	AC50 [2]
CC(NC(=O)CCn1c(=S)[nH]c2ccsc2c1=O)c1ccccc1 (stereo unspecified)	–	35.5 µM [falling, single point]
Cc1ccc(NC(=O)c2cc(S(=O)(=O)NC3CCCCC3)ccc2F)cc1Cl	0.0447 µM [falling, full curve, poor fit]	0.0224 µM [falling, full curve]
CCC[C@@H](NS(=O)(=O)c1ccc(C)cc1)C(=O)Oc1ccc2c3c(c(=O)oc2c1)CCC3	–	14.1 µM [rising, partial curve, poor fit]

From PubChem BioAssay AID1487 (National Center for Advancing Translational Sciences (NCATS), 2009)
